Assay results taken from patent US20050227289A1 (published 2005).
Results are given in words; binding and its absence hold for the method and conditions named. Some binding calls cover weakened binding; strength is not graded here.

Legend:
[1] = target: T1, soluble EpoR (EposR), soluble recombinant human erythropoietin receptor (human) (UniProt P19235); test: dissociation of pre-bound 0.5 uM EposR from yeast-displayed scFv at 37 C in the presence of excess Ab12 IgG1 as competitor, flow cytometry, detection with MAB307 + anti-mouse PE
T1 sequence (looked up): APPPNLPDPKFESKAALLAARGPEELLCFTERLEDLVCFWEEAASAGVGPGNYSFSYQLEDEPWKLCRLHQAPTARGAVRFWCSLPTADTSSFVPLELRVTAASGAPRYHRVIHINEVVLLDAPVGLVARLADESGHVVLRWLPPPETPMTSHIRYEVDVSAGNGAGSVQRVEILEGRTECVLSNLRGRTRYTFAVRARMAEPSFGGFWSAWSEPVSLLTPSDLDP

[2] = target: T1, soluble EpoR (EposR), soluble recombinant human erythropoietin receptor (human); test: equilibrium titration of soluble EpoR on yeast-displayed scFv at 37 C, flow cytometry, detection with MAB307 + anti-mouse RPE
[3] = target: T1, soluble EpoR (EposR), soluble recombinant human erythropoietin receptor (human); test: off-rate analysis on yeast, flow cytometry, 0.5 µM EposR, competition with Ab12 IgG1, detection with MAB307 and anti-mouse PE

Measured: binding

B1: Ab12 41/40 scFv (displayed on the surface of yeast) (scFv, not shown: large carriers)
scFv: GENKVEYAPALMALSQVQLQESGPGLVKPSETLSLTCTVSGASISSYYWSWIRQPPGKGLEWIGYIYYSGSTNYNPSLKSRVTISVDTSKNQFSLKLRSVTAADTAVYYCARERLGIGDYWGQGTLVTVSSGPAKELTPLKEAKVSDIQLTQSPSSLSASVGDRVTITCRASQGIRNDLGWYQQKPGKAPKRLIYAASSLQSGVPSRFSGSGSGTEFTLTISSLQPEDFATYYCLQHNTYPPTFGQGTKVEIK
binds: [1] | [2] | [3]
